Laboratory results as given in the supplement of paper PMC8975748.
Where a name gives a salt, the structure may show the parent alone. ± gives the standard deviation of the averaged measurements. The list shows a part of the results. These are raw signals, not scaled to a control.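 One yeast strain harboring four plasmids, each bearing a fluorescent protein plus an amino-acid or uracil synthesis gene, founds the community. Random loss of plasmids produces mixed prototroph and auxotroph subpopulations. Cells were fixed, then counted with automated confocal fluorescence imaging, with DMSO-treated wells as vehicle reference.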

Tested on: Saccharomyces cerevisiae BY4741 SeMeCo community
Test: imaged cell count per well (cells); higher = more cells
Details: 10 µM; 24 h; SM minimal medium
Protocol: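 Same SeMeCo high-content imaging drug screen: Selleck FDA-approved drugs at 10 µM, 24 h in SM medium, 384-well plates, 3 replicates.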

## C1CCN2C[C@@H]3C[C@@H](CN4CCCC[C@@H]34)[C@H]2C1 [(-)-Sparteine Sulfate]
  imaged cell count per well: 29700 ± 7000

## COc1cc2c(cc1OC)[C@@H]1Cc3ccc(OC)c(OC)c3CN1CC2 [Rotundine]
  imaged cell count per well: 19600 ± 3000

## Clc1ccc(C(Cn2ccnc2)OCc2c(Cl)cccc2Cl)c(Cl)c1 (stereo not drawn) [Isoconazole nitrate]
  imaged cell count per well: 3100 ± 460

## Cc1nnc(SCC2=C(C(=O)O)N3C(=O)[C@@H](NC(=O)Cn4cnnn4)[C@H]3SC2)s1 [Cefazolin Sodium]
  imaged cell count per well: 26600 ± 2500

## NC(=O)C(c1ccccc1)(c1ccccc1)[C@@H]1CCN(CCc2ccc3c(c2)CCO3)C1 [Darifenacin HBr]
  imaged cell count per well: 26300 ± 10000

## COC(=O)C1=C(C)NC(C)=C(C(=O)OC2CCCN(Cc3ccccc3)C2)C1c1cccc([N+](=O)[O-])c1 (stereo not drawn) [Benidipine HCl]
  imaged cell count per well: 21600 ± 4800

## COc1cc([C@@H]2c3cc4c(cc3[C@@H](O[C@@H]3O[C@@H]5CO[C@@H](c6cccs6)O[C@H]5[C@H](O)[C@H]3O)[C@H]3COC(=O)[C@H]23)OCO4)cc(OC)c1O [Teniposide]
  imaged cell count per well: 21600 ± 2300

## CC(=O)OCC1=C(C(=O)O)N2C(=O)[C@@H](NC(=O)CSC(=NC(C)C)NC(C)C)[C@H]2SC1 [Cefathiamidine]
  imaged cell count per well: 31100 ± 2700

## CN(C)CCc1c[nH]c2ccc(CS(=O)(=O)N3CCCC3)cc12 [Almotriptan Malate]
  imaged cell count per well: 22700 ± 1600

## NC12CC3CC(CC(C3)C1)C2 [Amantadine HCl]
  imaged cell count per well: 21400 ± 2200

## CN(C/C=C/C#CC(C)(C)C)Cc1cccc2ccccc12 [Terbinafine HCl]
  imaged cell count per well: 21900 ± 3600

## O=C1NC(=O)C(c2ccccc2)(c2ccccc2)N1 [Phenytoin]
  imaged cell count per well: 23500 ± 4000

## C[N+](C)(C)CCO.[Cl-] [Choline Chloride]
  imaged cell count per well: 32000 ± 6600

## COc1ccc(CNc2nc(N3CCC[C@H]3CO)ncc2C(=O)NCc2ncccn2)cc1Cl [Avanafil]
  imaged cell count per well: 25200 ± 3900

## O=C(O)c1cc(-c2ccc(F)cc2F)ccc1O [Diflunisal]
  imaged cell count per well: 20500 ± 3800

## CCN(CC)CCNC(=O)c1cc(Cl)c(N)cc1OC [Metoclopramide HCl]
  imaged cell count per well: 23200 ± 13000

## C[C@H](NCc1ccc(OCc2cccc(F)c2)cc1)C(N)=O [Safinamide Mesylate]
  imaged cell count per well: 24800 ± 1500

## CN[C@@H]1[C@H](O)[C@H](NC)[C@H]2O[C@@]3(O)C(=O)C[C@@H](C)O[C@H]3O[C@@H]2[C@H]1O [Spectinomycin 2HCl]
  imaged cell count per well: 21700 ± 3000

## COc1ccc2[nH]c([S+]([O-])Cc3ncc(C)c(OC)c3C)nc2c1 (stereo not drawn) [Omeprazole Sodium]
  imaged cell count per well: 29500 ± 3300

## CC1(C)S[C@@H]2[C@H](NC(=O)C(C(=O)O)c3ccccc3)C(=O)N2[C@H]1C(=O)O (stereo partly drawn) [Carbenicillin disodium]
  imaged cell count per well: 24500 ± 480

## O=C(O)c1cn(C2CC2)c2cc(N3CCNCC3)c(F)cc2c1=O [Ciprofloxacin hydrochloride hydrate]
  imaged cell count per well: 21600 ± 2100

## C[C@]12CC[C@@H]3c4ccc(O)cc4CC[C@H]3[C@@H]1CC[C@@H]2OC(=O)CCC1CCCC1 [Estradiol Cypionate]
  imaged cell count per well: 25100 ± 5800

## CC(C(=O)O)c1cccc(C(=O)c2ccccc2)c1 (stereo not drawn) [Ketoprofen]
  imaged cell count per well: 24800 ± 5200

## OC[C@H]1O[C@H](OCC2O[C@@H](O)[C@H](O)[C@@H](O)[C@@H]2O)[C@H](O)[C@@H](O)[C@H]1O (stereo partly drawn) [Melibiose]
  imaged cell count per well: 19200 ± 7900

## O=C1C(O)=C([C@H]2CC[C@H](c3ccc(Cl)cc3)CC2)C(=O)c2ccccc21 [Atovaquone]
  imaged cell count per well: 25600 ± 800

## c1cnc2cc3c(cc2n1)[C@@H]1CNC[C@H]3C1 [Varenicline Tartrate]
  imaged cell count per well: 22000 ± 7200

## C[C@](N)(Cc1ccc(O)c(O)c1)C(=O)O [Methyldopa]
  imaged cell count per well: 26600 ± 6700

## COCC1=C(C(=O)OC(C)OC(=O)OC(C)C)N2C(=O)[C@@H](NC(=O)/C(=N\OC)c3csc(N)n3)[C@H]2SC1 (stereo partly drawn) [Cefpodoxime proxetil]
  imaged cell count per well: 25100 ± 7000

## O=c1[nH]cnc2c1ncn2[C@H]1CC[C@@H](CO)O1 [Didanosine]
  imaged cell count per well: 25400 ± 3000

## C#C[C@]1(O)CC[C@H]2[C@@H]3CCc4cc(OC5CCCC5)ccc4[C@H]3CC[C@@]21C [Quinestrol]
  imaged cell count per well: 23600 ± 5300

## COc1cccc2c1C(=O)c1c(O)c3c(c(O)c1C2=O)C[C@@](O)(C(=O)CO)C[C@@H]3O[C@H]1C[C@H](N)[C@@H](O)[C@H](C)O1 [Epirubicin HCl]
  imaged cell count per well: 21400 ± 7200

## Cc1onc(-c2ccccc2)c1-c1ccc(S(N)(=O)=O)cc1 [Valdecoxib]
  imaged cell count per well: 30500 ± 3200

## CCN(CC)C(=O)[C@@]1(c2ccccc2)C[C@H]1CN [Levomilnacipran Hydrochloride]
  imaged cell count per well: 26400 ± 5800

## CC/C(=C(/CC)c1ccc(O)cc1)c1ccc(O)cc1 [Diethylstilbestrol]
  imaged cell count per well: 22100 ± 2300

## Cc1ccc(Cl)c(Nc2ccccc2C(=O)O)c1Cl [Meclofenamate Sodium]
  imaged cell count per well: 23000 ± 2900

## NC(=N\CCCCCC/N=C(N)/N=C(\N)Nc1ccc(Cl)cc1)/N=C(\N)Nc1ccc(Cl)cc1 [Chlorhexidine diacetate]
  imaged cell count per well: 25700 ± 8300

## CCCN[C@H]1CCc2nc(N)sc2C1 [Pramipexole dihydrochloride]
  imaged cell count per well: 27500 ± 2200

## CC1=CC[C@@](O)(C(C)C)CC1 [Terpinen-4-ol]
  imaged cell count per well: 20500 ± 1800

## Cc1c(C)c2c(c(C)c1O)CC[C@@](C)(CCC[C@H](C)CCC[C@H](C)CCCC(C)C)O2 [Vitamin E]
  imaged cell count per well: 31300 ± 3000

## CCOc1cc(N)c(Cl)cc1C(=O)NCC1CN(Cc2ccc(F)cc2)CCO1 (stereo not drawn) [Mosapride Citrate]
  imaged cell count per well: 17100 ± 7100

## CS(=O)(=O)c1ccc([C@@H](O)[C@@H](CF)NC(=O)C(Cl)Cl)cc1 [Florfenicol]
  imaged cell count per well: 23900 ± 6700

## Cc1ccccc1C(OCCN(C)C)c1ccccc1 (stereo not drawn) [Orphenadrine Citrate]
  imaged cell count per well: 25900 ± 2800

## CC(C)NNC(=O)c1ccncc1 [Iproniazid]
  imaged cell count per well: 23200 ± 7300

## CCCN(CCc1cccs1)[C@H]1CCc2c(O)cccc2C1 [Rotigotine]
  imaged cell count per well: 22500 ± 7100

## CCOC(=O)c1ccc(N)cc1 [Benzocaine hydrochloride]
  imaged cell count per well: 24600 ± 2500

## CCCNCC(O)COc1ccccc1C(=O)CCc1ccccc1 (stereo not drawn) [Propafenone HCl]
  imaged cell count per well: 25300 ± 1600

## CC[C@H](C)C(=O)O[C@H]1C[C@H](O)C=C2C=C[C@H](C)[C@H](CC[C@@H](O)C[C@@H](O)CC(=O)O)[C@H]21 [Pravastatin sodium]
  imaged cell count per well: 15900 ± 8900

## C[C@@H](NCCCc1cccc(C(F)(F)F)c1)c1cccc2ccccc12 [Cinacalcet HCl]
  imaged cell count per well: 24600 ± 3200

## CN1CCC[C@@H]1Cc1c[nH]c2ccc(CCS(=O)(=O)c3ccccc3)cc12 [Eletriptan HBr]
  imaged cell count per well: 26400 ± 9000

## CN1CCC(=C2c3ccccc3C=Cc3ccccc32)CC1 [Cyproheptadine hydrochloride]
  imaged cell count per well: 20500 ± 1700

## COc1ccc([C@H]2CNC(=O)C2)cc1OC1CCCC1 [S- (+)-Rolipram]
  imaged cell count per well: 24200 ± 7800

## NC[C@H]1O[C@H](O[C@H]2[C@H](O[C@@H]3O[C@H](CO)[C@@H](O)[C@H]3O)[C@@H](O)[C@H](N)C[C@@H]2N)[C@H](N)[C@@H](O)[C@@H]1O [Ribostamycin Sulfate]
  imaged cell count per well: 18200 ± 3100

## CCc1cccc2c3c([nH]c12)C(CC)(CC(=O)O)OCC3 (stereo not drawn) [Etodolac]
  imaged cell count per well: 24400 ± 5000

## Cc1cc(NS(=O)(=O)c2ccc(N)cc2)no1 [Sulfamethoxazole]
  imaged cell count per well: 23800 ± 4800

## CC(C)[N+](C)(CCOC(=O)C1c2ccccc2Oc2ccccc21)C(C)C [Propantheline bromide]
  imaged cell count per well: 27400 ± 6600

## O=C(O)CCc1nc(-c2ccccc2)c(-c2ccccc2)o1 [Oxaprozin]
  imaged cell count per well: 21700 ± 7500

## CN1C2CCCC1CC(NC(=O)c1nn(C)c3ccccc13)C2 (stereo not drawn) [Granisetron]
  imaged cell count per well: 25700 ± 3400

## O=C(O)CCCCCCCC(=O)O [Azelaic acid]
  imaged cell count per well: 19900 ± 6100

## C[C@@H]1O[C@@H]1P(=O)(O)O [Fosfomycin Disodium]
  imaged cell count per well: 24300 ± 3300

## OC(CCN1CCCCC1)(c1ccccc1)C1CCCCC1 (stereo not drawn) [Trihexyphenidyl hydrochloride]
  imaged cell count per well: 21700 ± 6700

## CC(C)COCC(CN(Cc1ccccc1)c1ccccc1)N1CCCC1 (stereo not drawn) [Bepridil hydrochloride]
  imaged cell count per well: 16700 ± 4900

## CNCC[C@H](Oc1cccc2ccccc12)c1cccs1 [Duloxetine]
  imaged cell count per well: 24800 ± 3800

## CC1=Nc2ccc(Cl)cc2S(=O)(=O)N1 [Diazoxide]
  imaged cell count per well: 30400 ± 1800

## CC[C@H]1OC(=O)C[C@@H](O)[C@H](C)[C@@H](O[C@@H]2O[C@H](C)[C@@H](O)[C@H](N(C)C)[C@H]2O)[C@@H](CCN2C[C@H](C)C[C@H](C)C2)C[C@@H](C)C(=O)/C=C/C(C)=C/[C@@H]1CO[C@@H]1O[C@H](C)[C@@H](O)[C@@H](OC)[C@H]1OC [Tilmicosin phosphate]
  imaged cell count per well: 28100 ± 1400

## CC[C@H]1OC(=O)[C@H](C)[C@@H](O[C@H]2C[C@@](C)(OC)[C@@H](O)[C@H](C)O2)[C@H](C)[C@@H](O[C@@H]2O[C@H](C)C[C@H](N(C)C)[C@H]2O)[C@](C)(O)C[C@@H](C)CN(C)[C@H](C)[C@@H](O)[C@]1(C)O [Azithromycin]
  imaged cell count per well: 21800 ± 980

## COc1ccc(C(=O)NCc2ccc(OCCN(C)C)cc2)cc1OC [Itopride hydrochloride]
  imaged cell count per well: 23400 ± 4700

## COC(=O)Nc1nc2cc(Sc3ccccc3)ccc2[nH]1 [Fenbendazole]
  imaged cell count per well: 26000 ± 1300

## O=C(C1CCCCC1)N1CC(=O)N2CCc3ccccc3C2C1 (stereo not drawn) [Praziquantel]
  imaged cell count per well: 23600 ± 2000

## Cc1ncc([N+](=O)[O-])n1CCO [Metronidazole]
  imaged cell count per well: 25800 ± 2800

## CC(C)[N+]1(C)[C@@H]2CC[C@H]1C[C@@H](OC(=O)C(CO)c1ccccc1)C2 (stereo partly drawn) [Ipratropium Bromide]
  imaged cell count per well: 25000 ± 6300

## Nc1ccc2cc3ccc(N)cc3nc2c1 [Proflavine]
  imaged cell count per well: 30600 ± 910

## CCOC(=O)C1=C(COCCN)NC(C)=C(C(=O)OC)[C@@H]1c1ccccc1Cl [Levamlodipine]
  imaged cell count per well: 27100 ± 4600

## CCC(=O)NS(=O)(=O)c1ccc(-c2c(-c3ccccc3)noc2C)cc1 [Parecoxib]
  imaged cell count per well: 23000 ± 2900
